Reference: publication PMC5387054, “Zinc-Dependent Transcriptional Regulation in Paracoccus denitrificans”
For at least one entry, the source does not settle the construct or the ends of the probe. The comparison behind a weaker result is the experiment's own reference, which may not be listed here. Where a protein sequence is shown, tags need not be part of it.

Target: T1, Zur (Paracoccus denitrificans) (UniProt A1B9K9)
T1 sequence (looked up): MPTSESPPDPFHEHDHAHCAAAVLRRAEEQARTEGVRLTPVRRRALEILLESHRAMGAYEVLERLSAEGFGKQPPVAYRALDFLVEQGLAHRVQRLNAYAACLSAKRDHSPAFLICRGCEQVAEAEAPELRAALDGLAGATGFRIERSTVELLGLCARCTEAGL
Test: EMSA
Details: 100 uM EDTA, EMSA: 10 mM Tris pH 8.0, 10 mM NaCl, 100 mM K-glutamate, 50 mM KCl, 1 mM DTT, 1.07 ug/ml BSA, 0.1 uM DNA, 0-20 uM Zur, 25 uM ZnCl2, 100 uM EDTA, 30 min room temperature, recombinant protein, residues 1-164, protein details: MBP (pMAL-c5X) removed by Factor Xa, probe letters rebuilt from the primers and the genome

Measured: binding result

CGGCAAGGACAAGGGAAGAAGGTCGGATCATGGCGAGACTCACTTGCGGAAACGCCAAGGTTATTTATGTTATATCGTAACCCGTCAAGCAAAAATGTAACGATATAACATCATGCCCACTTCGGAATCCCCGCCTGACCCGTTTCACG (double strand) [zur/znuA promoter (149 bp)]
binds more weakly: 10 uM apo-Zur + 25 uM Cu2+, same as apo | 10 uM apo-Zur + 25 uM Fe2+, same as apo | 10 uM apo-Zur + 25 uM Mn2+, same as apo | 10 uM apo-Zur + 25 uM Ni2+, same as apo | 10 uM apo-Zur, no metal

TTCCGGACAAAATGTCCAGCTTTTGCTTCACTTGACTTTCATCAATGAGCGACTCACGCTTGCCGGACAGTGAGGTCTTATCGGAAATAACAGATAGGGGACCCGCGTCATGAGCGAAATCATGACCAAGAACATGGCCCGGAACGTCTTCTA (double strand) [norC promoter]
binds more weakly: 25 uM Zn2+, shift begins ~5 uM Zur, weakest target but above negative control
